Results reported in paper PMC12540271.
Results are given in words; binding and its absence hold for the method and conditions named. Some results given as binding are weak or reduced against the parent protein; the word gives no strength.

Target: outer membrane porin PhoE (UniProt P02932)
Experiment: semi-native SDS-PAGE (heat modifiability assay); OMVs in semi-native sample buffer (0.4% SDS) left at room temperature (native), against 4% SDS at 95 °C for 10 min (denatured); resolving gel without SDS, run at 4 °C; Coomassie staining

binding: binds
B1: outer membrane porin PhoE (protein, UniProt P02932 22-351)
chain: AEIYNKDGNKLDVYGKVKAMHYMSDNASKDGDQSYIRFGFKGETQINDQLTGYGRWEAEFAGNKAESDTAQQKTRLAFAGLKYKDLGSFDYGRNLGALYDVEAWTDMFPEFGGDSSAQTDNFMTKRASGLATYRNTDFFGVIDGLNLTLQYQGKNENRDVKKQNGDGFGTSLTYDFGGSDFAISGAYTNSDRTNEQNLQSRGTGKRAEAWATGLKYDANNIYLATFYSETRKMTPITGGFANKTQNFEAVAQYQFDFGLRPSLGYVLSKGKDIEGIGDEDLVNYIDVGATYYFNKNMSAFVDYKINQLDSDNKLNINNDDIVAVGMTYQF
